For experiment [1], the target named is carbonic anhydrase-related protein 10 (CAH10) (mouse (endogenous in adult mouse brain)) (UniProt P61215). The experiment in a line: affinity purification with mass spectrometry.
Experiment [2] deals with receptor protein tyrosine phosphatase S (PTPRS) (mouse (endogenous in adult mouse brain)) (UniProt B0V2N1). The experiment in a line: affinity purification with mass spectrometry.

Protein sequences, listed by entry. Tags and fused reporters are not part of them. Lines headed by an entry give the natural chain unless they say otherwise; changes in a name come on top. Residues count along the entry.
UniProt P61215: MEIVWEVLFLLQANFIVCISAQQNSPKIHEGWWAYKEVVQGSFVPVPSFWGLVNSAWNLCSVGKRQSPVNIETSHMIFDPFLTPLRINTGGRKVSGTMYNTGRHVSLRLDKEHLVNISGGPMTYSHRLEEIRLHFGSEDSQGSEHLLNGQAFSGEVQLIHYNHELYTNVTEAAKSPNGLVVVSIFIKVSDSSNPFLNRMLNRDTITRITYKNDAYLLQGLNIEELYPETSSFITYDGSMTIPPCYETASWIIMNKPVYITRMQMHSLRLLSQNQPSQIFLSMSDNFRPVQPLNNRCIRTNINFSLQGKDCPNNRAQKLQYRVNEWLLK
UniProt B0V2N1, residues 30-1907: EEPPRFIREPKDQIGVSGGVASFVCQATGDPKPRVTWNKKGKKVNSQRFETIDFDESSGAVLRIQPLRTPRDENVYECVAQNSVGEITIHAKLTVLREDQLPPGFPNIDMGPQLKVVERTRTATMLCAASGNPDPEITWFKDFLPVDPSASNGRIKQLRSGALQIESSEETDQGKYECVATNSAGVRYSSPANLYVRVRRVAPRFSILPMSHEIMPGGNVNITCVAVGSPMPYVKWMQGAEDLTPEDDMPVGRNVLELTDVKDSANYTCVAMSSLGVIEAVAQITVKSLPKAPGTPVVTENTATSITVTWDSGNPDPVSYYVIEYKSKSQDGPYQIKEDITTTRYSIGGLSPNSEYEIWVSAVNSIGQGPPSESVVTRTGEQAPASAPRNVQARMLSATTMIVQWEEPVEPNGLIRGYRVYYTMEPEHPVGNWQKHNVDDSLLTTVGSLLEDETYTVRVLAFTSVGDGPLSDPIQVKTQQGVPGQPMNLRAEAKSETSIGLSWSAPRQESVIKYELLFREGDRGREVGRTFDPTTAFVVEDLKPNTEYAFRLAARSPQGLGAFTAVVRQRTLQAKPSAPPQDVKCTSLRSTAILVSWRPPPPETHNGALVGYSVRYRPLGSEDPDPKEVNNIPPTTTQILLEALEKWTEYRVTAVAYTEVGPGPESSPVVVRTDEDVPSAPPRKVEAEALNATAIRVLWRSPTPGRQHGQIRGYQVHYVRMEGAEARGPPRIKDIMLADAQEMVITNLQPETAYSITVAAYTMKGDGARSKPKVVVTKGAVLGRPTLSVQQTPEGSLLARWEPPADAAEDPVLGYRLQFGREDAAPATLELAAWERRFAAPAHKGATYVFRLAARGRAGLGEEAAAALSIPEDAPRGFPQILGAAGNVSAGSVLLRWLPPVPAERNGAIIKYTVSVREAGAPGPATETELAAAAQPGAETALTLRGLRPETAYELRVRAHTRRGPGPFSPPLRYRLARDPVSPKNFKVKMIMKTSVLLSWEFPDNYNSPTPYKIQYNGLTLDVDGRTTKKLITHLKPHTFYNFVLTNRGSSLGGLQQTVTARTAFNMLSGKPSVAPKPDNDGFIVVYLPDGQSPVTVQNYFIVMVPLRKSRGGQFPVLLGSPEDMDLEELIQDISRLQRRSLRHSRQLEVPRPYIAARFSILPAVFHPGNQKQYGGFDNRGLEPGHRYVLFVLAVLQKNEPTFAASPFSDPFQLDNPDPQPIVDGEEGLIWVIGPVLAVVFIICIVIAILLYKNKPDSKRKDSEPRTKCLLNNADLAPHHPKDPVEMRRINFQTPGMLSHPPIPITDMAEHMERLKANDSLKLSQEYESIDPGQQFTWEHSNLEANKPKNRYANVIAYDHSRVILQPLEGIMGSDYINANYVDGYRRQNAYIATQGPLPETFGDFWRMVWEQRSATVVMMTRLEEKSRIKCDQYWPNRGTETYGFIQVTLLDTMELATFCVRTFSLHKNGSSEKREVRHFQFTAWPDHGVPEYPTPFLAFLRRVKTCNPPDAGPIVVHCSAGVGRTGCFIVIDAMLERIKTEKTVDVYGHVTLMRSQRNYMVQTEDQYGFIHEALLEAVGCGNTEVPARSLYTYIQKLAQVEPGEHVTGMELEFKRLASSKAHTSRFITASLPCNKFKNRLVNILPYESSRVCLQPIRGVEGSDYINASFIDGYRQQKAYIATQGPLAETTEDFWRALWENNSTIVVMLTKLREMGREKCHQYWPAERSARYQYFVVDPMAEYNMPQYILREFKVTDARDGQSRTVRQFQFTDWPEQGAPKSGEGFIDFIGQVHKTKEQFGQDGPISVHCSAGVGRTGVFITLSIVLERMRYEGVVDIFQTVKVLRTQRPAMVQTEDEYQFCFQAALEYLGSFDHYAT

Results are given in words; binding and its absence hold for the method and conditions named. Binding seen in cells or lysates may run through a third protein. Here binding means that the protein was enriched with, or labelled near, the bait; the list need not be complete.

B1: leucine-rich repeat transmembrane neuronal protein 1 (LRRT1) (protein, UniProt Q8K377 35-522)
chain: APSGCPGQCRCEGRLLYCEALNLTEAPHNLSGLLGLSLRYNSLSELRAGQFTGLMQLTWLYLDHNHICSVQGDAFQKLRRVKELTLSSNQITELANTTFRPMPNLRSVDLSYNKLQALAPDLFHGLRKLTTLHMRANAIQFVPVRIFQDCRSLKFLDIGYNQLKSLARNSFAGLFKLTELHLEHNDLIKVNFAHFPRLISLHSLCLRRNKVAIVVSSLDWVWNLEKMDLSGNEIEYMEPHVFETVPYLQTLQLDSNRLTYIEPRILNSWKSLTSITLAGNLWDCGRNVCALASWLSNFQGRYDANLQCASPEYAQGEDVLDAVYAFHLCEDGAEPTSGHLLSVAVTNRSDLTPPESSATTLVDGGEGHDGTFEPITVALPGGEHAENAVQIHKVVTGTMALIFSFLIVVLVLYVSWKCFPASLRQLRQCFVTQRRKQKQKQTMHQMAAMSAQEYYVDYKPNHIEGALVIINEYGSCTCHQQPARECEV
With B1, the binding result in experiment [1] and in experiment [2] was “binds” throughout.

B2: SHSA7 (protein, UniProt Q8C3Q5 23-558)
chain: RPSNDTSSVAPGPLPALLAHLRRLTGALAGGGSAAGTSANATKTSPASGTGAAARAPPPAELCHGYYDVMGQYDATFNCSTGSYRFCCGTCHYRFCCEHRHMRLAQASCSNYDTPRWATTPPPLAGGAGGAGGAGGGPGPGQAGWLEGGRAGGAGGRGGEGPGGSTAYVVCGVISFALAVGVGAKVAFSKASRAPRAHREINVPRALVDILRHQAGPATRPDRARSSSLTPGLGGPDSMAPRTPKNLYNTMKPSNLDNLHYNVNSPKHHAATLDWRAMPPPSPSLHYSTLSCSRSFHNLSHLPPSYEAAVKSELNRYSSLKRLAEKDLDEAYLKRRQLEMPRGTLPLHALRRPGTGGGYRMDGWGGPEELGLAPAPNPRRVMSQEHLLGDGSRASRYEFTLPRARLVSQEHLLLSSPEALRQSREHLLSPPRSPALPPDPTTRASLAASHSNLLLGPGGPPTPLHGLPPSGLHAHHHHALHGSPQPAWMSDAGGGGGTLARRPPFQRQGTLEQLQFIPGHHLPQHLRTASKNEVTV
Take B2: the binding result in experiment [1] and in experiment [2] was “binds” each time.

Values taken from doi:10.1101/2024.07.16.603715.
